Measured values: patent US11084798B1, “2-oxoquinazoline derivatives as methionine adenosyltransferase 2A inhibitors” (IDEAYA BIOSCIENCES, INC., priority 2018, dated 2021)
pIC50: −log10 of the molar value. Some results were stated once for a whole list of compounds, not compound by compound.

Molecular target: hMAT2A (Homo sapiens (Human), UniProt P31153)
Test: Phosphate Sensor Fluorescence Assay (MAT2A enzyme inhibition)
Assay type: biochemical
Conditions: L-methionine and ATP 500 uM, class symbols

## O=c1nc(N[C@H]2C[C@H]2F)c2ccc(C(F)(F)F)nc2n1-c1ccccc1Cl (single isomer, unassigned) [Example 770]
  pIC50: > 6.70
